According to paper PMC3828283:
Results are given in words; binding and its absence hold for the method and conditions named. In cells and extracts the contact can be indirect. Binding can be weak; no strength is given. For part of these data: Tags and fused reporters may be left off the sequences shown.

T1: GST-Inhibitor-1 wild type (human) (UniProt Q13522)
T1 sequence: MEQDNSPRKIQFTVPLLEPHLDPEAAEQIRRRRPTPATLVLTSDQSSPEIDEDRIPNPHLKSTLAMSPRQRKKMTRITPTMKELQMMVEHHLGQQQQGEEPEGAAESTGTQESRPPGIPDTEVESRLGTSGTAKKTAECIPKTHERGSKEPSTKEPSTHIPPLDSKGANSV

B1: native PLN protein of cardiac homogenates (protein, UniProt P61014 1-52)
chain: MEKVQYLTRSAIRRASTIEMPQQARQNLQNLFINFCLILICLLLICIIVMLL

Experiments:
Assay in all cases: pull-down; GST or GST fusion protein bound to glutathione-Sepharose 4B mixed with 0.5 mg of mouse cardiac homogenates (untreated or treated beforehand with PKA) at 4°C for 16 h; 10 mM NaPO4 pH 7.2, 120 mM NaCl; western blot with PLN or PP1 antibody; only the target purified
[1] = molecular target: T1, GST-Inhibitor-1 wild type (human)
[2] = molecular target: GST-GM (aa382-778) (human)
GST-GM (aa1-778) (human) = molecular target: GST-GM (aa1-778) (human)

Row | Molecule | binding [1] | binding [2] | binding (GST-GM (aa1-778) (human))
1 | PP1 of cardiac homogenates (enzyme) | binds | – | –
2 | B1 | – | binds | binds
